Source: article PMC7862700
The entries are a selection whose mix differs from that of the whole data set. At the low end of the ranking the order means little.

By UniProt entry, the sequences of proteins in these tests, tags left out. Where a name states a change or a piece, a line headed by the entry shows the natural chain unless it says otherwise.
UniProt Q01892: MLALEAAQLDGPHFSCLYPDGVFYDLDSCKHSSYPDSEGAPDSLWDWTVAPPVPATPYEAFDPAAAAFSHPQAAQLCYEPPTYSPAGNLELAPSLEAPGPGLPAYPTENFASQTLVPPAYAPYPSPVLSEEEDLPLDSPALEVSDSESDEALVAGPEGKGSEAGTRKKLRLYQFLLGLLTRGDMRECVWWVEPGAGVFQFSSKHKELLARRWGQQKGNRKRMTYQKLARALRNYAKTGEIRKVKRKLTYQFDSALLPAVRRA

These sequences were tested against SPIB (UniProt Q01892) (assay: DAPPL (digital affinity profiling via proximity ligation, sequencing)). Conditions: 10 mM Tris-HCl pH 7.5, 50 mM NaCl, 1 mM DTT, 4% glycerol, room temperature, 30 min; GST-TFs on glutathione beads, 16-mer random dsDNA library, 0.1% …; high values mean tight binding; double strand, one strand shown; scale: fold enrichment (6-mer frequency, TF over GST control).

Row | Sequence | binding signal
1 | TGACTT | 1.52
2 | TGTCCA | 1.13
3 | TGGCTA | 1.31
4 | CTTTTA | 1.35
5 | GAATTT | 1.28
6 | TATAAC | 1.39
7 | GGTATT | 1.2
8 | CGCCTC | 1.51
9 | ATCATA | 1.18
10 | GATTTC | 1.72
11 | ATGTCC | 1.55
12 | ACTTTC | 1.7
13 | AAGGTA | 1.05
14 | GTAAAA | 1.1
15 | CGGCTT | 1.18
16 | TAACCC | 1.21
17 | TGTAAA | 1.2
18 | CAAGGT | 0.926
19 | GCGATG | 1.29

Row | Sequence | binding signal
20 | CCTGCA | 1.24
21 | TACCTC | 1.21
22 | GGAAAC | 1.39
23 | CCTGAT | 1.6
24 | ACATAT | 1.2
25 | TTAGCG | 1.13
26 | CCTTGG | 1.32
27 | GCTACC | 1.28
28 | AATAGC | 1.16
29 | TACATG | 1.16
30 | GTCCTA | 1.18
31 | ACGAAC | 1.22
32 | CTTGGT | 1.57
33 | CTGGAC | 1.05
34 | ATCTGT | 1.14
35 | TTGTAC | 1.44
36 | TGGCCT | 1.48
37 | TTGCGG | 1.2
38 | GCCTTC | 1.54

2 entries from above, as a markdown table.

| Row | Sequence | binding signal |
| --- | --- | --- |
| 32 | CTTGGT | 1.57 |
| 33 | CTGGAC | 1.05 |
